# Measurements as given in patent US20030037385A1, “Hair colouring compositions” (Unilever Home & Personal Care USA, Division of Conopco, Inc., priority 2001, published 2003).
# Experiments:
# [1] = Incorporation of TRC into hair fibres (washed fibres, fluorimetry after hair solubilisation); settings: 24 h room temperature
# Method: (§1) In each experiment, unpigmented hair fibres were used as clippings of 2-5 mm in length. Hair fibres from a greying male were obtained and the unpigmented hairs manually separated from the pigmented. Only unpigmented hairs were used in these studies. Aliquots of approximately 5 mg of dry unpigmented hair fibres with an average length of 5 mm were placed into Eppendorf tubes. 50 μl of assay mixture containing 100 mM Tris.HCl pH 8.5, 5 mM CaCl2, 10 mM DTT, 0.5% (w/v) Triton X-100 was added to each sample. The assay mixture was made up fresh each time from 1 M stocks of Tris pH8.5, CaCl2 (both stored at room temperature) and DTT (stored at −20° C.) and 10% Triton X-100 (stored at 4° C.). 50 μl of 2 or 4 mM Texas Red-cadaverine (Molecular Probes) (TRC; 10 mM stock in DMSO stored at −20° C.) was then added to each sample to give a final concentration of 2 mM of TRC. After 10 min of incubation at room temperature, the assay mixture was removed and the fibres were rinsed briefly in 1 ml of 0.1% Triton X-100. Hair fibres were recovered by centrifugation at 13,000 rpm for 10 seconds and the wash solution was removed. The fibres were then spread over the inner surface of the tube and left to dry at room temperature for 1 hour. Following the fibre drying step, 50μl of water was added to the bottom of each tube to maintain humidity, and the tubes were sealed and incubated at room temperature for 24 hours from the time the assay solutions were applied. The aim of this 24-hour post incubation was to allow an additional incorporation of TRC within the fibre. Once this incubation had been completed, fibres were washed three times in 1 ml of 0.1% Triton-X100 for 20 min at 95° C. (total wash time: 60 min). In some experiments one set of samples was not washed in order to quantitate the penetration of TRC within the fibre. At this step of the experiment photographs were taken in order to compare the intensity of the colour change by human eye between the different conditions tested. Fibres were then solubilised by the addition of 1 ml of 90% soluene and incubated at room temperature until complete solubilization had occurred (48 hours) in parallel with a standard curve of TRC (0.1-5 μM, final concentration). The penetration or incorporation of TRC into hair fibres was measured by fluorimetry at 580 nm excitation and 598 nm emission after dilution of the samples 2-fold with 90% soluene. TRC (2 mM final) was applied for 10 minutes from: (i) the assay mixture described above; (ii) water; (iii) Tris (100 mM final); (iv) Triton X-100 (0.5% final); (v) CaCl2 (5 mM final); and (vi) DTT (10 mM). Fibres were then rapidly rinsed and incubated at room temperature for 24 hours. Penetration and incorporation of TRC into the fibres were measured by fluorimetry after hair solubilisation. The effect of pH on penetration and incorporation of TRC were also studied. TRC (2 mM final) was applied for 10 minutes from: (i) assay mixture as described above; (ii) Tris (100 mM final); (iii) Tris plus 10 mM DTT; or(iv) water. Fibres were then rapidly rinsed and incubated at room temperature for 24 hours. Penetration and incorporation were measured by fluorimetry after hair solubilisation.
# [2] = Penetration of TRC into hair fibres (unwashed fibres, fluorimetry after hair solubilisation); settings: 24 h room temperature
# Method: as §1
# [3] = Example 1, TRC 2 mM final applied 10 min from Assay Mixture (100 mM Tris.HCl pH 8.5, 5 mM CaCl2, 10 mM DTT, 0.5% Triton X-100)
# [4] = Example 1, TRC 2 mM final applied 10 min from CaCl2 (5 mM final)
# [5] = Example 1, TRC 2 mM final applied 10 min from DTT (10 mM)
# [6] = Example 1, TRC 2 mM final applied 10 min from Tris (100 mM final)
# [7] = Example 1, TRC 2 mM final applied 10 min from Triton X-100 (0.5% final)
# [8] = Example 1, TRC 2 mM final applied 10 min from Water
# [9] = Example 2, TRC 2 mM final applied 10 min from Assay Mixture
# [10] = Example 2, TRC 2 mM final applied 10 min from Tris (100 mM final)
# [11] = Example 2, TRC 2 mM final applied 10 min from Tris plus 10 mM DTT
# [12] = Example 2, TRC 2 mM final applied 10 min from Water
substance,measurement,setting,value
Texas Red-cadaverine [TRC],Incorporation,[1]; [3],730 pmol/mg
same,Incorporation,[1]; [4],10 pmol/mg
same,Incorporation,[1]; [5],60 pmol/mg
same,Incorporation,[1]; [6],70 pmol/mg
same,Incorporation,[1]; [7],10 pmol/mg
same,Incorporation,[1]; [8],40 pmol/mg
same,Incorporation,[1]; [9],450 pmol/mg
same,Incorporation,[1]; [10],120 pmol/mg
same,Incorporation,[1]; [11],"1,300 pmol/mg"
same,Incorporation,[1]; [12],220 pmol/mg
same,Penetration,[2]; [3],"11,000 pml/mg"
same,Penetration,[2]; [4],"1,500 pml/mg"
same,Penetration,[2]; [5],"3,750 pml/mg"
same,Penetration,[2]; [6],"5,500 pml/mg"
same,Penetration,[2]; [7],"1,500 pml/mg"
same,Penetration,[2]; [8],"3,500 pml/mg"
same,Penetration,[2]; [9],"7,500 pml/mg"
same,Penetration,[2]; [10],"4,000 pml/mg"
same,Penetration,[2]; [11],"19,000 pml/mg"
same,Penetration,[2]; [12],"3,500 pml/mg"
